Data reported in publication PMC6113293, “Phosphorylation of ULK1 affects autophagosome fusion and links chaperone-mediated autophagy to macroautophagy” (Nature Communications, 2018).
These are yes or no findings as the source states them, for the method shown. In cells and extracts the contact can be indirect. A yes stands for co-enrichment or nearness to the bait. Other partners may have been found. Tags and fused reporters may be left off the sequences shown.

Molecular target: T1, GFP-STX17, P56962
T1 chain: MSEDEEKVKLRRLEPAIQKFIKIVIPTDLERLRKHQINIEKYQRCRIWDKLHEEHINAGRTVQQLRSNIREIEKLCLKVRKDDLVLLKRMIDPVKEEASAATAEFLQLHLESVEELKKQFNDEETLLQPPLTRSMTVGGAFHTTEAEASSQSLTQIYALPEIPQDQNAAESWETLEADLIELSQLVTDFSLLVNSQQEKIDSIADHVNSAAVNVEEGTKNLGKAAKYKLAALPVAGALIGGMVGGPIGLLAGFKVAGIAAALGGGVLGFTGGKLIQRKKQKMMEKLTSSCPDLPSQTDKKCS
Assay: affinity purification with mass spectrometry; mass spectrometry of GFP-STX17 IPed proteins
Settings: remark: other sources report otherwise

B1: ULK1 (endogenous), O75385 1-1050 (enzyme)
chain: MEPGRGGTETVGKFEFSRKDLIGHGAFAVVFKGRHREKHDLEVAVKCINKKNLAKSQTLLGKEIKILKELKHENIVALYDFQEMANSVYLVMEYCNGGDLADYLHAMRTLSEDTIRLFLQQIAGAMRLLHSKGIIHRDLKPQNILLSNPAGRRANPNSIRVKIADFGFARYLQSNMMAATLCGSPMYMAPEVIMSQHYDGKADLWSIGTIVYQCLTGKAPFQASSPQDLRLFYEKNKTLVPTIPRETSAPLRQLLLALLQRNHKDRMDFDEFFHHPFLDASPSVRKSPPVPVPSYPSSGSGSSSSSSSTSHLASPPSLGEMQQLQKTLASPADTAGFLHSSRDSGGSKDSSCDTDDFVMVPAQFPGDLVAEAPSAKPPPDSLMCSGSSLVASAGLESHGRTPSPSPPCSSSPSPSGRAGPFSSSRCGASVPIPVPTQVQNYQRIERNLQSPTQFQTPRSSAIRRSGSTSPLGFARASPSPPAHAEHGGVLARKMSLGGGRPYTPSPQVGTIPERPGWSGTPSPQGAEMRGGRSPRPGSSAPEHSPRTSGLGCRLHSAPNLSDLHVVRPKLPKPPTDPLGAVFSPPQASPPQPSHGLQSCRNLRGSPKLPDFLQRNPLPPILGSPTKAVPSFDFPKTPSSQNLLALLARQGVVMTPPRNRTLPDLSEVGPFHGQPLGPGLRPGEDPKGPFGRSFSTSRLTDLLLKAAFGTQAPDPGSTESLQEKPMEIAPSAGFGGSLHPGARAGGTSSPSPVVFTVGSPPSGSTPPQGPRTRMFSAGPTGSASSSARHLVPGPCSEAPAPELPAPGHGCSFADPITANLEGAVTFEAPDLPEETLMEQEHTEILRGLRFTLLFVQHVLEIAALKGSASEAAGGPEYQLQESVVADQISLLSREWGFAEQLVLYLKVAELLSSGLQSAIDQIRAGKLCLSSTVKQVVRRLNELYKASVVSCQGLSLRLQRFFLDKQRLLDRIHSITAERLIFSHAVQMVQSAALDEMFQHREGCVPRYHKALLLLEGLQHMLSDQADIENVTKCKLCIERRLSALLTGICA
In the case of B1, the binding is reported as “binds”.
